Data as given in PubChem BioAssay AID1259405 (NCATS, 2018).
Screen: 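Knock-downs that lift recombinant protein yield in hamster ovary cells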 (primary screen). Cells: Chinese hamster CHO-K1 ovary cells with stable secreted eGFP expression. Reagents: single siRNA against mouse genes, 0.8 pmol siRNA per well (2 µl of 400 nM stock). Time to read-out: 3 days. Measurement: 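Per-well intracellular GFP measured by laser scanning cytometry, plus viability from ATP luminescence, each relative to plate median of non-targeting control wells, in %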. Scale: GFP, % of control: higher = more GFP per well, higher productivity; viability (ATP), % of control: higher = more viable cells (more ATP). Call rule: 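a knock-down is called active if GFP reaches 120% or more of non-targeting control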.
The deposit covers about 50,000 reagents; this is a part drawn at random. About 4,000 of them (8%) were called active. 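Mouse siRNA library applied to hamster cells; one well for each siRNA.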 Entries without a mark were called inactive. The numbers tell different reagents against one gene apart. No sequences are given here.

target gene | reagent | GFP, % of control | viability (ATP), % of control
Onecut3 (GeneID 246086) | 1 | 67.3 | 74.4
Onecut3 (GeneID 246086) | 2 | 64.2 | 79
Onecut3 (GeneID 246086) | 3 | 79.7 | 76
Zer1 (GeneID 227693) | 1 | 85.9 | 108
Zer1 (GeneID 227693) | 2 | 85.7 | 88.2
Zer1 (GeneID 227693) | 3 | 142 (active) | 119
Cep78 (GeneID 208518) | 1 | 93.1 | 83.6
Cep78 (GeneID 208518) | 2 | 136 (active) | 102
Cep78 (GeneID 208518) | 3 | 124 (active) | 103
Tas2r104 (GeneID 387340) | 1 | 68.9 | 74.7
Tas2r104 (GeneID 387340) | 2 | 111 | 88.4
Tas2r104 (GeneID 387340) | 3 | 63.2 | 89.5
Kcnn3 (GeneID 140493) | 1 | 101 | 84.5
Kcnn3 (GeneID 140493) | 2 | 35.1 | 59.2
Kcnn3 (GeneID 140493) | 3 | 39.1 | 50.1
Ndufa10 (GeneID 67273) | 1 | 107 | 105
Ndufa10 (GeneID 67273) | 2 | 79 | 73.7
Ndufa10 (GeneID 67273) | 3 | 75.1 | 70.9
Mr1 (GeneID 15064) | 1 | 12.6 | 28.3
Mr1 (GeneID 15064) | 2 | 153 (active) | 104
Mr1 (GeneID 15064) | 3 | 89.7 | 55.3
Gabra3 (GeneID 14396) | 1 | 48.4 | 71.1
Gabra3 (GeneID 14396) | 2 | 34.7 | 51.9
Gabra3 (GeneID 14396) | 3 | 45.5 | 64.5
Serpina1d (GeneID 20703) | 1 | 62.4 | 62.4
Serpina1d (GeneID 20703) | 2 | 94.5 | 35.3
Serpina1d (GeneID 20703) | 3 | 80.7 | 101
Olfm1 (GeneID 56177) | 1 | 93.1 | 61.8
Olfm1 (GeneID 56177) | 2 | 77.2 | 91.9
Olfm1 (GeneID 56177) | 3 | 37.1 | 50.5
Tmem54 (GeneID 66260) | 1 | 78.7 | 70.2
Tmem54 (GeneID 66260) | 2 | 105 | 87.8
Tmem54 (GeneID 66260) | 3 | 75.6 | 79.3
Cops6 (GeneID 26893) | 1 | 104 | 109
Cops6 (GeneID 26893) | 2 | 138 (active) | 72.1
Cops6 (GeneID 26893) | 3 | 111 | 119
Etfa (GeneID 110842) | 1 | 74.1 | 71.4
Etfa (GeneID 110842) | 2 | 61.2 | 68.2
Blvra (GeneID 109778) | 1 | 79.5 | 84
Blvra (GeneID 109778) | 2 | 48.3 | 51.6
Blvra (GeneID 109778) | 3 | 51.4 | 63.1
Wdr74 (GeneID 107071) | 1 | 127 (active) | 94.3
Wdr74 (GeneID 107071) | 2 | 77.2 | 76.5
Wdr74 (GeneID 107071) | 3 | 92.1 | 123
Galr2 (GeneID 14428) | 1 | 110 | 100
Galr2 (GeneID 14428) | 2 | 50.7 | 83.6
Galr2 (GeneID 14428) | 3 | 84.2 | 76.7
Map6d1 (GeneID 208158) | 1 | 56.5 | 73.1
Map6d1 (GeneID 208158) | 2 | 66.5 | 72.5
Map6d1 (GeneID 208158) | 3 | 88.3 | 57.2
Tyk2 (GeneID 54721) | 1 | 58.3 | 78.6
Tyk2 (GeneID 54721) | 2 | 77.1 | 67.3
Tyk2 (GeneID 54721) | 3 | 47.5 | 53
Ffar4 (GeneID 107221) | 1 | 72.4 | 49.2
Ffar4 (GeneID 107221) | 2 | 99.2 | 75.2
Ffar4 (GeneID 107221) | 3 | 79.6 | 79.3
Appl1 (GeneID 72993) | 1 | 61.5 | 80.6
Appl1 (GeneID 72993) | 2 | 78 | 136
Appl1 (GeneID 72993) | 3 | 62.8 | 88.9
Cyb5d2 (GeneID 192986) | 1 | 87.6 | 46.6
Cyb5d2 (GeneID 192986) | 2 | 52.2 | 52.3
Cyb5d2 (GeneID 192986) | 3 | 65 | 89.6
Peg10 (GeneID 170676) | 1 | 50.1 | 41.6
Peg10 (GeneID 170676) | 2 | 83.1 | 79
Peg10 (GeneID 170676) | 3 | 80.2 | 76.9
Slc27a4 (GeneID 26569) | 1 | 115 | 90.5
Slc27a4 (GeneID 26569) | 2 | 84.5 | 75.7
Slc27a4 (GeneID 26569) | 3 | 88.2 | 115
Rarres2 (GeneID 71660) | 1 | 63 | 63.6
Rarres2 (GeneID 71660) | 2 | 130 (active) | 91.9
Mtcl1 (GeneID 68617) | 1 | 83 | 87.4
Mtcl1 (GeneID 68617) | 2 | 109 | 103
Mtcl1 (GeneID 68617) | 3 | 94.1 | 82.5
Dimt1 (GeneID 66254) | 1 | 75.3 | 67.4
Dimt1 (GeneID 66254) | 2 | 79.3 | 103
Dimt1 (GeneID 66254) | 3 | 61.4 | 58.3
Arfip2 (GeneID 76932) | 1 | 112 | 80.2
Arfip2 (GeneID 76932) | 2 | 78.9 | 66.7
Arfip2 (GeneID 76932) | 3 | 61.8 | 72
Eif3h (GeneID 68135) | 1 | 54.1 | 70.3
Eif3h (GeneID 68135) | 2 | 37.5 | 59.5
Eif3h (GeneID 68135) | 3 | 82.2 | 91.6
Nudt3 (GeneID 56409) | 1 | 93.1 | 85.6
Nudt3 (GeneID 56409) | 2 | 75.7 | 79.7
Nudt3 (GeneID 56409) | 3 | 87.6 | 87.9

An excerpt taken from the entries so far, as a working copy:
target gene | reagent | GFP, % of control | viability (ATP), % of control
Serpina1d (GeneID 20703) | 3 | 80.7 | 101
Olfm1 (GeneID 56177) | 1 | 93.1 | 61.8
Olfm1 (GeneID 56177) | 2 | 77.2 | 91.9
Olfm1 (GeneID 56177) | 3 | 37.1 | 50.5
Tmem54 (GeneID 66260) | 1 | 78.7 | 70.2
